According to publication PMC11435217, “In Vitro Studies of Genistein Lipophilic Derivatives as Potential UV Radiation Protectors” (Pharmaceuticals, 2024):

What was measured:
[1] = test system: Me45 (human malignant melanoma cell line); assay: Determination of EC50 values, MTS assay, Me45; type: cell-based; conditions: four-parametric Hill fit of the effect–dose curve
Procedure: (§1) NHDFs were purchased from Lonza Group Ltd.—Lonza Verviers (Verviers, Belgium), and the human malignant melanoma (Me45) cell line was obtained from the Maria Skłodowska-Curie Memorial Cancer Center and National Institute of Oncology Branch Gliwice, Poland. […] During the culturing periods, cells were passaged before confluency reached 80% in culture flasks and washed regularly with PBS.
(§2) The EC50 values of genistein and its derivatives for both cell lines were determined using the MTS assay (Cell Titer 96 AQueous One Solution Cell Proliferation Assay, Promega, Madison, WI, USA). Cells were seeded in 96-well plates (5 × 10^3 cells/well) and incubated for 24 h at 37 °C in 5% CO2. Subsequently, the cells were treated with twelve concentrations of each compound ranging from 1–100 µM for 48 h at 37 °C in 5% CO2. Afterwards, the medium, including the investigated compounds, was removed from all wells and replaced with PBS. In total, 20 µL of MTS was added to each well. Plates were then incubated for 2 h at 37 °C in 5% CO2. The absorbance was measured at λ = 490 nm using an Epoch microplate reader (BioTek, Winooski, VT, USA). EC50 values were calculated using Matlab software (Matlab R2022a, MathWorks, Natick, MA, USA).

[2] = test system: NHDF (normal human dermal fibroblasts); assay: Determination of EC50 values, MTS assay, NHDF; type: cell-based; conditions: four-parametric Hill fit of the effect–dose curve
Procedure: as §1, §2

Row | SMILES | Hill Slope [1] | Hill Slope [2]
1 | CCCCCCCCCCCC(=O)Oc1ccc(-c2coc3cc(O)cc(O)c3c2=O)cc1 [4′-L-Gen, 4′-genistein dodecanate] | 3.0014 | 0.5275
2 | CCCCCOC(=O)Oc1cc(O)c2c(=O)c(-c3ccc(O)cc3)coc2c1 [Compound W5-Gen, n-pentyl-7-O-genistein carbonate] | 3.1178 | 0.5870
3 | O=c1c(-c2ccc(O)cc2)coc2cc(O)cc(O)c12 [Gen, Genistein] | 0.9270 | 0.7206
4 | O=C(OCc1ccccc1)Oc1cc(O)c2c(=O)c(-c3ccc(O)cc3)coc2c1 [WBn-Gen, bezyl-7-O-genistein carbonate] | 2.0406 | 0.5911
